The values that follow come from patent US20250197451A1, “USE OF BIOACTIVE POLYPEPTIDE SYNTHESIZED ON BASIS OF KDM2B SEQUENCE IN NEURAL DIFFERENTIATION AND REGENERATION AND REPAIR OF MESENCHYMAL STEM CELLS” (CAPITAL MEDICAL UNIVERSITY SCHOOL OF STOMATOLOGY, priority 2021, published 2025).

Amino acid sequences for entries named in this document (tags omitted).
UniProt Q15910: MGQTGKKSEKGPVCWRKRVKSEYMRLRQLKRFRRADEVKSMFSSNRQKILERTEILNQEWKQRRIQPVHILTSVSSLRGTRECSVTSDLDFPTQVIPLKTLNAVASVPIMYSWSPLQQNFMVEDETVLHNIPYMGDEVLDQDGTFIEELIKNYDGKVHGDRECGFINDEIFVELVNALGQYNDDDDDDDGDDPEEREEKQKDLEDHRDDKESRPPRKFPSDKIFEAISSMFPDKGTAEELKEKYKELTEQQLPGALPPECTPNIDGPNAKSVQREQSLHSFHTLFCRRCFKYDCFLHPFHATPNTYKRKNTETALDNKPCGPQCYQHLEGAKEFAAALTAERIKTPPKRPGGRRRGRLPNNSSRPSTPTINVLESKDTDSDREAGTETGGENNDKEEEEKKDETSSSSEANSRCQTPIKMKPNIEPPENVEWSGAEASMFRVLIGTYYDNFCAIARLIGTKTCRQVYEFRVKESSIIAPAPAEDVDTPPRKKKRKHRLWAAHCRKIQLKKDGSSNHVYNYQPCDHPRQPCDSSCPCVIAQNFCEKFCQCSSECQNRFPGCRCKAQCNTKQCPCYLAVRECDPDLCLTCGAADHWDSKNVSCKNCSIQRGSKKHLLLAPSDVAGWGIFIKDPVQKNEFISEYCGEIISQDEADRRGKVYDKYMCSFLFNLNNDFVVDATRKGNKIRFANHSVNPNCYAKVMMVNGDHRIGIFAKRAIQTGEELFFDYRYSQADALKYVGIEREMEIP

For this assay, the target named is biotin-labelled EZH2 protein (UniProt Q15910). The experiment in a line: KDM2B peptide array probed with biotin-EZH2; positive colored point.

No constants are given. Whether binding was seen depends on the method and setting. Some results given as binding are weak or reduced against the parent protein; the word gives no strength.

B1: peptide 151 (peptide)
peptide: QKMNRDNKEGQEPAK
In the case of B1, the binding result is “binds”.

B2: peptide 153 (peptide)
peptide: QEPAKRRSECEEAPR
For B2, the binding result is recorded as “binds”.

B3: peptide 47 (peptide)
peptide: LMSVKGCFTDFHIDF
Take B3: the binding result is given as “binds”.

B4: peptide 233 (peptide)
peptide: WIAVSALCSSSCPLL
As to B4, the binding result is “binds”.

B5: peptide 139 (peptide)
peptide: CNEIIHPGCLKIKES
For B5, the binding result is “binds”.

B6: peptide 46 (peptide)
peptide: VKKYCLMSVKGCFTD
B6: the binding result is reported as “binds”.

B7: peptide 123 (peptide)
peptide: TRCRKCEACLRTECG
B7: the binding result is listed as “binds”.

B8: peptide 5 (peptide)
peptide: AEKQKKKTVIYTKCF
For B8, the binding result is reported as “binds”.

B9: peptide 232 (peptide)
peptide: LSGCSWIAVSALCSS
For B9, the binding result was “binds”.

B10: peptide 152 (peptide)
peptide: DNKEGQEPAKRRSEC
As to B10, the binding result is “binds”.

B11: peptide 122 (peptide)
peptide: ARRRRTRCRKCEACL
Regarding B11, the binding entry is recorded as “binds”.

B12: peptide 231 (peptide)
peptide: LRDLVLSGCSWIAVS
Take B12: the binding entry was “binds”.

B13: peptide 131 (peptide)
peptide: CIAPVLPHTAVCLVC
Regarding B13, the binding entry is listed as “binds”.

B14: peptide 142 (peptide)
peptide: EGVVNDELPNCWECP
B14: the binding result was “binds”.

B15: peptide 132 (peptide)
peptide: LPHTAVCLVCGEAGK
Turning to B15, the binding result is “binds”.
